Measurements taken from the supplement of paper PMC4604168 (melanoma cell lines).
This is one part of the list. Single values are uncertain, as repeats are few or missing.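 The apoptosis fraction was the count of cleaved-PARP antibody-stained nuclei relative to all DNA-stained nuclei, imaged in 1,536-well plates. Screening doses were set so most cells survived, and baseline and induced cleaved-PARP levels vary greatly across cell lines.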

Key:
Assay in all cases: cleaved PARP positive nuclei fraction relative to DMSO control; melanoma cells; higher = more apoptosis
Settings in all cases: library dose: low library concentration; 72 h
COLO792 = test system: COLO792
COLO800 = test system: COLO800
COLO829 = test system: COLO829
G361 = test system: G361
IPC-298 = test system: IPC-298
IST-MEL1 = test system: IST-MEL1
LB2518-MEL = test system: LB2518-MEL
LOXIMVI = test system: LOXIMVI

SMILES | cleaved PARP positive nuclei fraction (COLO792) [%] | cleaved PARP positive nuclei fraction (COLO800) [%] | cleaved PARP positive nuclei fraction (COLO829) [%] | cleaved PARP positive nuclei fraction (G361) [%] | cleaved PARP positive nuclei fraction (IPC-298) [%] | cleaved PARP positive nuclei fraction (IST-MEL1) [%] | cleaved PARP positive nuclei fraction (LB2518-MEL) [%] | cleaved PARP positive nuclei fraction (LOXIMVI) [%]
CN(c1ncccc1CNc1nc(Nc2ccc3c(c2)CC(=O)N3)ncc1C(F)(F)F)S(C)(=O)=O + Cc1cc(SCc2sc(-c3ccc(C(F)(F)F)c(F)c3)nc2C)ccc1OCC(=O)O [GW0742] (first compound 0.08 µM, partner dose 2 µM) | 106 | 32.2 | 115 | 144 | 91.6 | 71.6 | 79.7 | 166
CC1(C)CCC(c2ccc(Cl)cc2)=C(CN2CCN(c3ccc(C(=O)NS(=O)(=O)c4ccc(N[C@H](CCN5CCOCC5)CSc5ccccc5)c(S(=O)(=O)C(F)(F)F)c4)cc3)CC2)C1 + Cc1cc(SCc2sc(-c3ccc(C(F)(F)F)c(F)c3)nc2C)ccc1OCC(=O)O [GW0742] (first compound 0.4 µM, partner dose 2 µM) | 309 | 42.1 | 117 | 165 | 309 | 173 | 85.2 | 72.8
CS(=O)(=O)c1ccc(C(=O)Nc2ccc(Cl)c(-c3ccccn3)c2)c(Cl)c1 [vismodegib] + O=C(Oc1ccc([N+](=O)[O-])cc1)N1CCC(C(O)(c2ccc3c(c2)OCO3)c2ccc3c(c2)OCO3)CC1 [JZL184] (first compound 1 µM, partner dose 1 µM) | 89.9 | 46.8 | 137 | 168 | 226 | 236 | 31.9 | 24.8
Cc1ccc(Nc2nccc(N(C)c3ccc4c(C)n(C)nc4c3)n2)cc1S(N)(=O)=O [Pazopanib] + Cc1cc(SCc2sc(-c3ccc(C(F)(F)F)c(F)c3)nc2C)ccc1OCC(=O)O [GW0742] (first compound 0.4 µM, partner dose 2 µM) | 52.4 | 36.5 | 85.6 | 98.4 | 55 | 58.2 | 34.7 | 108
COc1cc([C@@H]2c3cc4c(cc3[C@@H](O[C@@H]3O[C@@H]5CO[C@@H](C)O[C@H]5[C@H](O)[C@H]3O)[C@H]3COC(=O)[C@H]23)OCO4)cc(OC)c1O [etoposide] + Cc1cc(SCc2sc(-c3ccc(C(F)(F)F)c(F)c3)nc2C)ccc1OCC(=O)O [GW0742] (first compound 0.02 µM, partner dose 2 µM) | 100 | 118 | 141 | 82.9 | 90.5 | 21.2 | 68.1 | 88.8
C[C@]12O[C@H](C[C@]1(O)CO)n1c3ccccc3c3c4c(c5c6ccccc6n2c5c31)CNC4=O [Lestaurtinib] + O=C(O)C(=O)Nc1sc2c(c1C(=O)O)CCNC2 [TCS401] (first compound 0.004 µM, partner dose 1.66667 µM) | 67.2 | 104 | 82.3 | 137 | 65.6 | 35.9 | 125 | 157
O=c1[nH]nc(Sc2ncc([N+](=O)[O-])s2)n1-c1ccc2c(c1)OCCO2 + Cc1cc(SCc2sc(-c3ccc(C(F)(F)F)c(F)c3)nc2C)ccc1OCC(=O)O [GW0742] (first compound 0.2 µM, partner dose 2 µM) | 102 | 65.4 | 35.1 | 66.3 | 135 | 62.1 | 50.4 | 34.2
N.N.[Cl][Pt][Cl] [cisplatin] + CCCCCCCCCCCC1=C(O)C(=O)C=C(O)C1=O [Embelin] (first compound 1.6 µM, partner dose 1.2 µM) | 107 | 58.6 | 113 | 100 | 86.9 | 163 | 72 | 67.2
Cn1sc(=O)n(Cc2ccccc2)c1=O + C/C(O)=C(\C#N)C(=O)Nc1cc(Br)ccc1Br [LFM-A13] (first compound 0.4 µM, partner dose 2 µM) | 105 | 151 | 42.6 | 67.3 | 46.9 | 131 | 72.3 | 78.6
N.N.[Cl][Pt][Cl] [cisplatin] + Cn1cc(/C=C2\C(=O)Nc3cccnc32)c2ccccc21 [GW441756] (first compound 1.6 µM, partner dose 0.4 µM) | 91.7 | 85.8 | 224 | 67.4 | 46.5 | 344 | 412 | 198
O=C(Nc1cc(C(F)(F)F)cc(C(F)(F)F)c1)c1cc(Cl)ccc1O + Cc1cc(SCc2sc(-c3ccc(C(F)(F)F)c(F)c3)nc2C)ccc1OCC(=O)O [GW0742] (first compound 0.016 µM, partner dose 2 µM) | 117 | 61.3 | 76.5 | 107 | 29.8 | 132 | 52.3 | 164
CCCCCCCCc1ccc(CCC(N)(CO)CO)cc1 [fingolimod] + C/C(O)=C(\C#N)C(=O)Nc1cc(Br)ccc1Br [LFM-A13] (first compound 2 µM, partner dose 2 µM) | 80.5 | 335 | 153 | 144 | 63 | 76.7 | 49.2 | 121
C[C@]12O[C@H](C[C@]1(O)CO)n1c3ccccc3c3c4c(c5c6ccccc6n2c5c31)CNC4=O [Lestaurtinib] + COc1cc2ncnc(Nc3ccc(Oc4ccccc4)cc3)c2cc1OC [SrcI1] (first compound 0.004 µM, partner dose 2 µM) | 87.8 | 39.8 | 88.9 | 185 | 265 | 71.7 | 90.4 | 159
CS(=O)(=O)CCNCc1ccc(-c2ccc3ncnc(Nc4ccc(OCc5cccc(F)c5)c(Cl)c4)c3c2)o1 [lapatinib] + C/C(O)=C(\C#N)C(=O)Nc1cc(Br)ccc1Br [LFM-A13] (first compound 0.8 µM, partner dose 2 µM) | 206 | 145 | 117 | 92.6 | 92.3 | 78.8 | 269 | 101
Cc1cc(Nc2cc(N3CCN(C)CC3)nc(Sc3ccc(NC(=O)C4CC4)cc3)n2)n[nH]1 [Tozasertib] + C/C(O)=C(\C#N)C(=O)Nc1cc(Br)ccc1Br [LFM-A13] (first compound 0.006 µM, partner dose 2 µM) | 137 | 221 | 243 | 77.2 | 45.7 | 92.2 | 84.3 | 92.5
N#CC[C@H](C1CCCC1)n1cc(-c2ncnc3[nH]ccc23)cn1 [ruxolitinib] + C/C(O)=C(\C#N)C(=O)Nc1cc(Br)ccc1Br [LFM-A13] (first compound 1 µM, partner dose 2 µM) | 130 | 171 | 90 | 75.7 | 39.5 | 128 | 25.8 | 104
CC1(C)CCC(c2ccc(Cl)cc2)=C(CN2CCN(c3ccc(C(=O)NS(=O)(=O)c4ccc(N[C@H](CCN5CCOCC5)CSc5ccccc5)c(S(=O)(=O)C(F)(F)F)c4)cc3)CC2)C1 + C/C(O)=C(\C#N)C(=O)Nc1cc(Br)ccc1Br [LFM-A13] (first compound 0.4 µM, partner dose 2 µM) | 263 | 140 | 74.3 | 133 | 127 | 80.8 | 159 | 130
C[C@]12O[C@H](C[C@]1(O)CO)n1c3ccccc3c3c4c(c5c6ccccc6n2c5c31)CNC4=O [Lestaurtinib] + Cn1cc(/C=C2\C(=O)Nc3cccnc32)c2ccccc21 [GW441756] (first compound 0.004 µM, partner dose 0.4 µM) | 86.6 | 134 | 40.6 | 69.6 | 95.8 | 118 | 68.4 | 90.9
C=CCNC1=C2C[C@@H](C)C[C@H](OC)[C@H](O)[C@@H](C)/C=C(\C)[C@H](OC(N)=O)[C@@H](OC)/C=C\C=C(/C)C(=O)NC(=CC1=O)C2=O [Tanespimycin] + Cc1cc(SCc2sc(-c3ccc(C(F)(F)F)c(F)c3)nc2C)ccc1OCC(=O)O [GW0742] (first compound 0.002 µM, partner dose 2 µM) | 50.9 | 25.6 | 74.3 | 119 | 182 | 72 | 46.6 | 108
Cn1cc(C2=C(c3cn(C4CCN(Cc5ccccn5)CC4)c4ccccc34)C(=O)NC2=O)c2ccccc21 [Enzastaurin] + COC(=O)c1sccc1S(=O)(=O)Nc1ccc(Nc2ccccc2)cc1OC [GSK0660] (first compound 0.8 µM, partner dose 1 µM) | 60.9 | 139 | 65.7 | 58.6 | 81.2 | 81 | 78.6 | 177
CC(C)C[C@H](NC(=O)[C@H](Cc1ccccc1)NC(=O)c1cnccn1)B(O)O [Bortezomib] + C/C(O)=C(\C#N)C(=O)Nc1cc(Br)ccc1Br [LFM-A13] (first compound 0.001 µM, partner dose 2 µM) | 91.8 | 46 | 152 | 2160 | 60.1 | 153 | 390 | 56.1
O=C(O)c1ccc2c(c1)nc(Nc1cccc(Cl)c1)c1ccncc12 + O=C(Oc1ccc([N+](=O)[O-])cc1)N1CCC(C(O)(c2ccc3c(c2)OCO3)c2ccc3c(c2)OCO3)CC1 [JZL184] (first compound 0.4 µM, partner dose 1 µM) | 91.7 | 70 | 101 | 88.1 | 31 | 88.1 | 86.5 | 38.1
Cc1cn(-c2cc(NC(=O)c3ccc(C)c(Nc4nccc(-c5cccnc5)n4)c3)cc(C(F)(F)F)c2)cn1 [nilotinib] + O=C(Oc1ccc([N+](=O)[O-])cc1)N1CCC(C(O)(c2ccc3c(c2)OCO3)c2ccc3c(c2)OCO3)CC1 [JZL184] (first compound 0.2 µM, partner dose 1 µM) | 20.6 | 34.2 | 118 | 126 | 117 | 84 | 137 | 68.6
Cn1cc(C2=C(c3cn(C4CCN(Cc5ccccn5)CC4)c4ccccc34)C(=O)NC2=O)c2ccccc21 [Enzastaurin] + CC(C)CCN1c2nc(Nc3cc(F)c(O)c(F)c3)ncc2N(C)C(=O)C1C [BID1870] (first compound 0.8 µM, partner dose 0.2 µM) | 61.4 | 210 | 28.1 | 99.3 | 71.4 | 129 | 86.3 | 84.2
Nc1ncn([C@H]2C[C@H](O)[C@@H](CO)O2)c(=O)n1 [decitabine] + Cc1cc(SCc2sc(-c3ccc(C(F)(F)F)c(F)c3)nc2C)ccc1OCC(=O)O [GW0742] (first compound 0.1 µM, partner dose 2 µM) | 68.2 | 47.3 | 99.2 | 80.5 | 174 | 138 | 216 | 90

Pulled one by one from above (two):
SMILES | cleaved PARP positive nuclei fraction (COLO792) [%] | cleaved PARP positive nuclei fraction (COLO800) [%] | cleaved PARP positive nuclei fraction (COLO829) [%] | cleaved PARP positive nuclei fraction (G361) [%] | cleaved PARP positive nuclei fraction (IPC-298) [%] | cleaved PARP positive nuclei fraction (IST-MEL1) [%] | cleaved PARP positive nuclei fraction (LB2518-MEL) [%] | cleaved PARP positive nuclei fraction (LOXIMVI) [%]
Cn1sc(=O)n(Cc2ccccc2)c1=O + C/C(O)=C(\C#N)C(=O)Nc1cc(Br)ccc1Br [LFM-A13] (first compound 0.4 µM, partner dose 2 µM) | 105 | 151 | 42.6 | 67.3 | 46.9 | 131 | 72.3 | 78.6
O=c1[nH]nc(Sc2ncc([N+](=O)[O-])s2)n1-c1ccc2c(c1)OCCO2 + Cc1cc(SCc2sc(-c3ccc(C(F)(F)F)c(F)c3)nc2C)ccc1OCC(=O)O [GW0742] (first compound 0.2 µM, partner dose 2 µM) | 102 | 65.4 | 35.1 | 66.3 | 135 | 62.1 | 50.4 | 34.2
